PMC5445624
These are yes or no findings as the source states them, for the method shown. Where a sequence is shown, tags or fusion partners need not be part of it.

Chains of the proteins cited; added tags and fusions are not shown. Lines headed by an entry give the natural chain unless they say otherwise; changes in a name come on top.
UniProt P28322: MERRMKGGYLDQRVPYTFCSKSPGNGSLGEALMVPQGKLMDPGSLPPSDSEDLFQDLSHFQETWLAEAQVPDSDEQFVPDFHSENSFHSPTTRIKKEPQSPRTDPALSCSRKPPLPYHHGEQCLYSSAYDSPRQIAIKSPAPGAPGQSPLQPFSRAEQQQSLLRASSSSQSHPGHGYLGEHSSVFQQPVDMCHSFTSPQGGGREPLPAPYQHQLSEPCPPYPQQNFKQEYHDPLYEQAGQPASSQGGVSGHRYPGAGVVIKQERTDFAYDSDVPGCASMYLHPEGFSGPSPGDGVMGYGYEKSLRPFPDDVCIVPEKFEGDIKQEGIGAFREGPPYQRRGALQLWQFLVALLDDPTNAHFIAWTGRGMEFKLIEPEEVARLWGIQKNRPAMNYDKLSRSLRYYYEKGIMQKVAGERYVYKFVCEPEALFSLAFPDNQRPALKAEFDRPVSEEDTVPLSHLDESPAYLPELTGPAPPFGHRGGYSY

Target: GST-ETV4(1-480)(K1234R) (mouse) (UniProt P28322)
Assay: pull-down; GST pulldown: GST-ETV4 forms (SUMOylated in a bacterial expression system, or not) as bait, recombinant MBP-RNF4 as prey; pulled down RNF4 detected by immunoblotting with anti-RNF4 antibody (Figure 1C-F); both purified

binding: no binding
B1: MBP-RNF4(WT) (protein, UniProt O88846 1-194)
chain: MSTRNPQRKRRGGAVNSRQTQKRTRETTSTPEISLEAEPIELVETVGDEIVDLTCESLEPVVVDLTHNDSVVIVEERRRPRRNGRRLRQDHADSCVVSSDDEELSKDKDVYVTTHTPRSTKDEGTTGLRPSGTVSCPICMDGYSEIVQNGRLIVSTECGHVFCSQCLRDSLKNANTCPTCRKKINHKRYHPIYI
